Literature values in patent US6858574B2, “Process for making perfume containing surfactant compositions having perfume burst when diluted” (Unilever Home & Personal Care USA, division of Conopco, Inc., priority 2002, dated 2005).
At least one structure is not confirmed: it was looked up by name or label, or the drawing left a doubt. Marks after values point to notes of the source that are not given here.

Conditions: cited from earlier work

For `CCC(CC)COCCOCCOCCOCCOCCOCCO` [(C2H5)2CHCH2(OC2H4)6OH], the “CMC (wt./wt.)” value is listed as 0.0366* wt./wt.
For `CCCC(CCC)COCCOCCOCCOCCOCCOCCO` [(C3H7)2CHCH2(OC2H4)6OH], the “CMC (wt./wt.)” value is given as 0.0091* wt./wt.
